According to US20200231671A1:
Results are given in words; binding and its absence hold for the method and conditions named. Some binding calls cover weakened binding; strength is not graded here.

The chains behind the UniProt entries cited, without tags or fusion partners. Residues count along the entry.
UniProt P18627, residues 23-450: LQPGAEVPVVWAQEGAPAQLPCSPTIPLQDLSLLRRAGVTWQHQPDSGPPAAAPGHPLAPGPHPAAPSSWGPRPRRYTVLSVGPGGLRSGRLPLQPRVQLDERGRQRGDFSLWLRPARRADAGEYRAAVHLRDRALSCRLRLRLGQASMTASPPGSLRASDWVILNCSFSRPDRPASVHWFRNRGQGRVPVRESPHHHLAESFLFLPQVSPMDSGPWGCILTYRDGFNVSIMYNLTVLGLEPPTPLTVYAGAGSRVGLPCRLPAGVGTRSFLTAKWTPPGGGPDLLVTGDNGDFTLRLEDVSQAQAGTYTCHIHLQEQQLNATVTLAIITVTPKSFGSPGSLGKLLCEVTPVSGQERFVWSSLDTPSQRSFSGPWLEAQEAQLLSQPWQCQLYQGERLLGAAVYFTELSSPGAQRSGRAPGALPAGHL

Target: recombinant human LAG-3 fusion protein (human) (UniProt P18627)
Assay: BIAcore, capture method

- binding: binds
B1: 25E3 human monoclonal antibody (antibody, IgG1, V domains shown)
VH: EVQLVESGGGVVRPGGSLRLSCAASGFTFDDYGMSWVRQAPGKGLEWVSGINWNGGSTYYADSVKGRFTISGDNAKNSLYLQMNSLRAEDTALYYCTTGGYWGQGTLVTVSS
VL: AIQLTQSPSSLSASVGDRVTITCRASQGIRSALAWYQQKPGKAPKLLIYDASSLESGVPSRFSGSGSGTDFTLTISSLQPEDFATYYCQQFNSYPYTFGQGTKLEIK
